Consider six molecules from PMC8406179.

Assay [1] concerns the target N-terminally FLAG/HA epitope-tagged MmuPV1 E7 (Mus musculus papillomavirus type 1). Description: co-IP; SAOS-2 cells cotransfected with HA-tagged RB1 (1-928, 379-928 or 1-792) and FLAG/HA-tagged MmuPV1 E7 or HPV16 E7; immunoprecipitation with FLAG antibodies, HA immunoblot.
The target in assay [2] is MmuPV1 E7^D90N (Mus musculus papillomavirus type 1). Description: co-IP; HCT116 transfected with FLAG/HA-tagged MmuPV1 E7 or mutants; lysis in EBC buffer (50 mM Tris-Cl pH 8.0, 150 mM NaCl, 0.5% NP-40, 0.5 mM EDTA); anti-HA or anti-FLAG agarose; endogenous RB1 detected by immunoblot. On the technique in general: Immunoblotting shows a protein as a band on a membrane.
The target in assay [3] is N-terminally FLAG/HA epitope-tagged MmuPV1 E7 (Mus musculus papillomavirus type 1). The description is as above.
For assay [4] the target is unchanged. Nature of the assay: co-IP; SAOS-2 cells cotransfected with wild-type RB1 or RB1^L and MmuPV1 E7 or HPV16 E7 expression vectors.
For assay [5] the target is unchanged. Description: co-IP; NIH 3T3 murine fibroblasts transfected with N-terminally FLAG/HA-tagged MmuPV1 E7 or D90A; endogenous Rb1 detected by immunoblot.

Substitutions are numbered along the chain they refer to. Names and notes keep the numbering of the source. These are yes or no findings as the source states them, for the method shown. Binding seen in cells or lysates may run through a third protein. A result given as binding can be weak or reduced; the word gives no strength. For some of these results: Sequences can lack the tags named with a protein.

B1: HA-epitope tagged RB1 truncation mutant 379-928 (lacking the amino terminus) (domain or fragment, UniProt P06400 379-928)
chain: MNTIQQLMMILNSASDQPSENLISYFNNCTVNPKESILKRVKDIGYIFKEKFAKAVGQGCVEIGSQRYKLGVRLYYRVMESMLKSEEERLSIQNFSKLLNDNIFHMSLLACALEVVMATYSRSTSQNLDSGTDLSFPWILNVLNLKAFDFYKVIESFIKAEGNLTREMIKHLERCEHRIMESLAWLSDSPLFDLIKQSKDREGPTDHLESACPLNLPLQNNHTAADMYLSPVRSPKKKGSTTRVNSTANAETQATSAFQTQKPLKSTSLSLFYKKVYRLAYLRLNTLCERLLSEHPELEHIIWTLFQHTLQNEYELMRDRHLDQIMMCSMYGICKVKNIDLKFKIIVTAYKDLPHAVQETFKRVLIKEEEYDSIIVFYNSVFMQRLKTNILQYASTRPPTLSPIPHIPRSPYKFPSSPLRIPGGNIYISPLKSPYKISEGLPTPTKMTPRSRILVSIGESFGTSEKFQKINQMVCNSDRVLKRSAEGSNPPKPLKKLRFDIEGSDEADGSKHLPGESKFQQKLAEMTSTRTRMQKQKMNDSMDTSNKEEK
In the case of B1, the binding entry in assay [1] is “binds”.

B2: HA-epitope tagged full-length RB1 (amino acid residues 1 to 928) (protein, UniProt P06400 1-928)
chain: MPPKTPRKTAATAAAAAAEPPAPPPPPPPEEDPEQDSGPEDLPLVRLEFEETEEPDFTALCQKLKIPDHVRERAWLTWEKVSSVDGVLGGYIQKKKELWGICIFIAAVDLDEMSFTFTELQKNIEISVHKFFNLLKEIDTSTKVDNAMSRLLKKYDVLFALFSKLERTCELIYLTQPSSSISTEINSALVLKVSWITFLLAKGEVLQMEDDLVISFQLMLCVLDYFIKLSPPMLLKEPYKTAVIPINGSPRTPRRGQNRSARIAKQLENDTRIIEVLCKEHECNIDEVKNVYFKNFIPFMNSLGLVTSNGLPEVENLSKRYEEIYLKNKDLDARLFLDHDKTLQTDSIDSFETQRTPRKSNLDEEVNVIPPHTPVRTVMNTIQQLMMILNSASDQPSENLISYFNNCTVNPKESILKRVKDIGYIFKEKFAKAVGQGCVEIGSQRYKLGVRLYYRVMESMLKSEEERLSIQNFSKLLNDNIFHMSLLACALEVVMATYSRSTSQNLDSGTDLSFPWILNVLNLKAFDFYKVIESFIKAEGNLTREMIKHLERCEHRIMESLAWLSDSPLFDLIKQSKDREGPTDHLESACPLNLPLQNNHTAADMYLSPVRSPKKKGSTTRVNSTANAETQATSAFQTQKPLKSTSLSLFYKKVYRLAYLRLNTLCERLLSEHPELEHIIWTLFQHTLQNEYELMRDRHLDQIMMCSMYGICKVKNIDLKFKIIVTAYKDLPHAVQETFKRVLIKEEEYDSIIVFYNSVFMQRLKTNILQYASTRPPTLSPIPHIPRSPYKFPSSPLRIPGGNIYISPLKSPYKISEGLPTPTKMTPRSRILVSIGESFGTSEKFQKINQMVCNSDRVLKRSAEGSNPPKPLKKLRFDIEGSDEADGSKHLPGESKFQQKLAEMTSTRTRMQKQKMNDSMDTSNKEEK
On to B2, for which the binding result in assay [1] was “binds”.

B3: retinoblastoma tumor suppressor protein RB1 (endogenous, HCT116) (protein, UniProt P06400 1-928)
chain: B2 chain
Take B3: the binding result in assay [2] and in assay [3] was “binds” each time.

B4: wild-type RB1 (expression vector, SAOS-2) (protein, UniProt P06400 1-928)
chain: B2 chain
For B4, the binding entry in assay [4] is listed as “binds”.

B5: RB1^L mutant (I753A; N757A; M761A), LXCXE binding-defective RB1 (protein, UniProt P06400 1-928)
chain: B2 chain with I753A, N757A, M761A
Consider B5, for which the binding result in assay [4] is on record as “binds”.

B6: endogenous murine Rb1 (protein, UniProt P13405 1-921)
chain: MPPKAPRRAAAAEPPPPPPPPPREDDPAQDSGPEELPLARLEFEEIEEPEFIALCQKLKVPDHVRERAWLTWEKVSSVDGILEGYIQKKKELWGICIFIAAVDLDEMPFTFTELQKSIETSVYKFFDLLKEIDTSTKVDNAMSRLLKKYNVLCALYSKLERTCELIYLTQPSSALSTEINSMLVLKISWITFLLAKGEVLQMEDDLVISFQLMLCVVDYFIKFSPPALLREPYKTAAIPINGSPRTPRRGQNRSARIAKQLENDTRIIEVLCKEHECNIDEVKNVYFKNFIPFINSLGIVSSNGLPEVESLSKRYEEVYLKNKDLDARLFLDHDKTLQTDPIDSFETERTPRKNNPDEEANVVTPHTPVRTVMNTIQQLMVILNSASDQPSENLISYFNNCTVNPKENILKRVKDVGHIFKEKFANAVGQGCVDIGVQRYKLGVRLYYRVMESMLKSEEERLSIQNFSKLLNDNIFHMSLLACALEVVMATYSRSTLQHLDSGTDLSFPWILNVLNLKAFDFYKVIESFIKVEANLTREMIKHLERCEHRIMESLAWLSDSPLFDLIKQSKDGEGPDNLEPACPLSLPLQGNHTAADMYLSPLRSPKKRTSTTRVNSAANTETQAASAFHTQKPLKSTSLALFYKKVYRLAYLRLNTLCARLLSDHPELEHIIWTLFQHTLQNEYELMRDRHLDQIMMCSMYGICKVKNIDLKFKIIVTAYKDLPHAAQETFKRVLIREEEFDSIIVFYNSVFMQRLKTNILQYASTRPPTLSPIPHIPRSPYKFSSSPLRIPGGNIYISPLKSPYKISEGLPTPTKMTPRSRILVSIGESFGTSEKFQKINQMVCNSDRVLKRSAEGGNPPKPLKKLRFDIEGADEADGSKHLPAESKFQQKLAEMTSTRTRMQKQRMNESKDVSNKEEK
With B6, in assay [5], the binding result is reported as “binds”.
